# Experimental data from the supplement of paper PMC11006884.
# Protein sequences, listed by entry. Tags and fused reporters are not part of them. Lines headed by an entry give the natural chain unless they say otherwise; changes in a name come on top.
# UniProt Q86VP6: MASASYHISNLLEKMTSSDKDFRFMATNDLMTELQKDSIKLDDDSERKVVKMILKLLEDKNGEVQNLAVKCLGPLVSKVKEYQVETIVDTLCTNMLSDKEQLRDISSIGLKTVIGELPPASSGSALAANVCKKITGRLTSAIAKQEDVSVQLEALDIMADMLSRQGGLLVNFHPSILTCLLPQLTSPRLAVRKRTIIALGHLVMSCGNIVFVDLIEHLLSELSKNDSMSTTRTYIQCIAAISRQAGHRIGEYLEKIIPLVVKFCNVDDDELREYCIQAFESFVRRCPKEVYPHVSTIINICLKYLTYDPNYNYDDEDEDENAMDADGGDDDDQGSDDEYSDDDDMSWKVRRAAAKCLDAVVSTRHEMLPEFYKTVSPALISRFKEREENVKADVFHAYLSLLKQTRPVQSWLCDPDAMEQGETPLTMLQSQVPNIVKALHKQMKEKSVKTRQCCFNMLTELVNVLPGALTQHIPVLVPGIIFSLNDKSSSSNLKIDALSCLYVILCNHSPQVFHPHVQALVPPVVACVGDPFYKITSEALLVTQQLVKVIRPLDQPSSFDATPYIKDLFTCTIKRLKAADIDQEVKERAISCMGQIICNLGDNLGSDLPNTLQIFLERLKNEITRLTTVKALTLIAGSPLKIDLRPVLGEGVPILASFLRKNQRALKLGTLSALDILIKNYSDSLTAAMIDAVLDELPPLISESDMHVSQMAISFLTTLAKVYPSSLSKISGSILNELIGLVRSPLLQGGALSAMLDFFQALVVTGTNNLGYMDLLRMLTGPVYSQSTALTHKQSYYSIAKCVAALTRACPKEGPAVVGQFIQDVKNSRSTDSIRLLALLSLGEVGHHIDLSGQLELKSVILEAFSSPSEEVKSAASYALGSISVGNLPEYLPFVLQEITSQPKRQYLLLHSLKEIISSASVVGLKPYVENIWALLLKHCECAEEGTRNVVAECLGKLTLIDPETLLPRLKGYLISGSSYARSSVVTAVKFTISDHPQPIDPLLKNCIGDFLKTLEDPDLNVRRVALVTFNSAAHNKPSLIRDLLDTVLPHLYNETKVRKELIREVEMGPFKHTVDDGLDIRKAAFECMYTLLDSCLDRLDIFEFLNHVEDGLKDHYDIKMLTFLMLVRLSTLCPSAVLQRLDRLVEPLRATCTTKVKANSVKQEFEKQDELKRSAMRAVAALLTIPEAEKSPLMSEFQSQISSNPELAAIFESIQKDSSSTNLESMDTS
# UniProt Q7Z6Z7, whole entry, looked up: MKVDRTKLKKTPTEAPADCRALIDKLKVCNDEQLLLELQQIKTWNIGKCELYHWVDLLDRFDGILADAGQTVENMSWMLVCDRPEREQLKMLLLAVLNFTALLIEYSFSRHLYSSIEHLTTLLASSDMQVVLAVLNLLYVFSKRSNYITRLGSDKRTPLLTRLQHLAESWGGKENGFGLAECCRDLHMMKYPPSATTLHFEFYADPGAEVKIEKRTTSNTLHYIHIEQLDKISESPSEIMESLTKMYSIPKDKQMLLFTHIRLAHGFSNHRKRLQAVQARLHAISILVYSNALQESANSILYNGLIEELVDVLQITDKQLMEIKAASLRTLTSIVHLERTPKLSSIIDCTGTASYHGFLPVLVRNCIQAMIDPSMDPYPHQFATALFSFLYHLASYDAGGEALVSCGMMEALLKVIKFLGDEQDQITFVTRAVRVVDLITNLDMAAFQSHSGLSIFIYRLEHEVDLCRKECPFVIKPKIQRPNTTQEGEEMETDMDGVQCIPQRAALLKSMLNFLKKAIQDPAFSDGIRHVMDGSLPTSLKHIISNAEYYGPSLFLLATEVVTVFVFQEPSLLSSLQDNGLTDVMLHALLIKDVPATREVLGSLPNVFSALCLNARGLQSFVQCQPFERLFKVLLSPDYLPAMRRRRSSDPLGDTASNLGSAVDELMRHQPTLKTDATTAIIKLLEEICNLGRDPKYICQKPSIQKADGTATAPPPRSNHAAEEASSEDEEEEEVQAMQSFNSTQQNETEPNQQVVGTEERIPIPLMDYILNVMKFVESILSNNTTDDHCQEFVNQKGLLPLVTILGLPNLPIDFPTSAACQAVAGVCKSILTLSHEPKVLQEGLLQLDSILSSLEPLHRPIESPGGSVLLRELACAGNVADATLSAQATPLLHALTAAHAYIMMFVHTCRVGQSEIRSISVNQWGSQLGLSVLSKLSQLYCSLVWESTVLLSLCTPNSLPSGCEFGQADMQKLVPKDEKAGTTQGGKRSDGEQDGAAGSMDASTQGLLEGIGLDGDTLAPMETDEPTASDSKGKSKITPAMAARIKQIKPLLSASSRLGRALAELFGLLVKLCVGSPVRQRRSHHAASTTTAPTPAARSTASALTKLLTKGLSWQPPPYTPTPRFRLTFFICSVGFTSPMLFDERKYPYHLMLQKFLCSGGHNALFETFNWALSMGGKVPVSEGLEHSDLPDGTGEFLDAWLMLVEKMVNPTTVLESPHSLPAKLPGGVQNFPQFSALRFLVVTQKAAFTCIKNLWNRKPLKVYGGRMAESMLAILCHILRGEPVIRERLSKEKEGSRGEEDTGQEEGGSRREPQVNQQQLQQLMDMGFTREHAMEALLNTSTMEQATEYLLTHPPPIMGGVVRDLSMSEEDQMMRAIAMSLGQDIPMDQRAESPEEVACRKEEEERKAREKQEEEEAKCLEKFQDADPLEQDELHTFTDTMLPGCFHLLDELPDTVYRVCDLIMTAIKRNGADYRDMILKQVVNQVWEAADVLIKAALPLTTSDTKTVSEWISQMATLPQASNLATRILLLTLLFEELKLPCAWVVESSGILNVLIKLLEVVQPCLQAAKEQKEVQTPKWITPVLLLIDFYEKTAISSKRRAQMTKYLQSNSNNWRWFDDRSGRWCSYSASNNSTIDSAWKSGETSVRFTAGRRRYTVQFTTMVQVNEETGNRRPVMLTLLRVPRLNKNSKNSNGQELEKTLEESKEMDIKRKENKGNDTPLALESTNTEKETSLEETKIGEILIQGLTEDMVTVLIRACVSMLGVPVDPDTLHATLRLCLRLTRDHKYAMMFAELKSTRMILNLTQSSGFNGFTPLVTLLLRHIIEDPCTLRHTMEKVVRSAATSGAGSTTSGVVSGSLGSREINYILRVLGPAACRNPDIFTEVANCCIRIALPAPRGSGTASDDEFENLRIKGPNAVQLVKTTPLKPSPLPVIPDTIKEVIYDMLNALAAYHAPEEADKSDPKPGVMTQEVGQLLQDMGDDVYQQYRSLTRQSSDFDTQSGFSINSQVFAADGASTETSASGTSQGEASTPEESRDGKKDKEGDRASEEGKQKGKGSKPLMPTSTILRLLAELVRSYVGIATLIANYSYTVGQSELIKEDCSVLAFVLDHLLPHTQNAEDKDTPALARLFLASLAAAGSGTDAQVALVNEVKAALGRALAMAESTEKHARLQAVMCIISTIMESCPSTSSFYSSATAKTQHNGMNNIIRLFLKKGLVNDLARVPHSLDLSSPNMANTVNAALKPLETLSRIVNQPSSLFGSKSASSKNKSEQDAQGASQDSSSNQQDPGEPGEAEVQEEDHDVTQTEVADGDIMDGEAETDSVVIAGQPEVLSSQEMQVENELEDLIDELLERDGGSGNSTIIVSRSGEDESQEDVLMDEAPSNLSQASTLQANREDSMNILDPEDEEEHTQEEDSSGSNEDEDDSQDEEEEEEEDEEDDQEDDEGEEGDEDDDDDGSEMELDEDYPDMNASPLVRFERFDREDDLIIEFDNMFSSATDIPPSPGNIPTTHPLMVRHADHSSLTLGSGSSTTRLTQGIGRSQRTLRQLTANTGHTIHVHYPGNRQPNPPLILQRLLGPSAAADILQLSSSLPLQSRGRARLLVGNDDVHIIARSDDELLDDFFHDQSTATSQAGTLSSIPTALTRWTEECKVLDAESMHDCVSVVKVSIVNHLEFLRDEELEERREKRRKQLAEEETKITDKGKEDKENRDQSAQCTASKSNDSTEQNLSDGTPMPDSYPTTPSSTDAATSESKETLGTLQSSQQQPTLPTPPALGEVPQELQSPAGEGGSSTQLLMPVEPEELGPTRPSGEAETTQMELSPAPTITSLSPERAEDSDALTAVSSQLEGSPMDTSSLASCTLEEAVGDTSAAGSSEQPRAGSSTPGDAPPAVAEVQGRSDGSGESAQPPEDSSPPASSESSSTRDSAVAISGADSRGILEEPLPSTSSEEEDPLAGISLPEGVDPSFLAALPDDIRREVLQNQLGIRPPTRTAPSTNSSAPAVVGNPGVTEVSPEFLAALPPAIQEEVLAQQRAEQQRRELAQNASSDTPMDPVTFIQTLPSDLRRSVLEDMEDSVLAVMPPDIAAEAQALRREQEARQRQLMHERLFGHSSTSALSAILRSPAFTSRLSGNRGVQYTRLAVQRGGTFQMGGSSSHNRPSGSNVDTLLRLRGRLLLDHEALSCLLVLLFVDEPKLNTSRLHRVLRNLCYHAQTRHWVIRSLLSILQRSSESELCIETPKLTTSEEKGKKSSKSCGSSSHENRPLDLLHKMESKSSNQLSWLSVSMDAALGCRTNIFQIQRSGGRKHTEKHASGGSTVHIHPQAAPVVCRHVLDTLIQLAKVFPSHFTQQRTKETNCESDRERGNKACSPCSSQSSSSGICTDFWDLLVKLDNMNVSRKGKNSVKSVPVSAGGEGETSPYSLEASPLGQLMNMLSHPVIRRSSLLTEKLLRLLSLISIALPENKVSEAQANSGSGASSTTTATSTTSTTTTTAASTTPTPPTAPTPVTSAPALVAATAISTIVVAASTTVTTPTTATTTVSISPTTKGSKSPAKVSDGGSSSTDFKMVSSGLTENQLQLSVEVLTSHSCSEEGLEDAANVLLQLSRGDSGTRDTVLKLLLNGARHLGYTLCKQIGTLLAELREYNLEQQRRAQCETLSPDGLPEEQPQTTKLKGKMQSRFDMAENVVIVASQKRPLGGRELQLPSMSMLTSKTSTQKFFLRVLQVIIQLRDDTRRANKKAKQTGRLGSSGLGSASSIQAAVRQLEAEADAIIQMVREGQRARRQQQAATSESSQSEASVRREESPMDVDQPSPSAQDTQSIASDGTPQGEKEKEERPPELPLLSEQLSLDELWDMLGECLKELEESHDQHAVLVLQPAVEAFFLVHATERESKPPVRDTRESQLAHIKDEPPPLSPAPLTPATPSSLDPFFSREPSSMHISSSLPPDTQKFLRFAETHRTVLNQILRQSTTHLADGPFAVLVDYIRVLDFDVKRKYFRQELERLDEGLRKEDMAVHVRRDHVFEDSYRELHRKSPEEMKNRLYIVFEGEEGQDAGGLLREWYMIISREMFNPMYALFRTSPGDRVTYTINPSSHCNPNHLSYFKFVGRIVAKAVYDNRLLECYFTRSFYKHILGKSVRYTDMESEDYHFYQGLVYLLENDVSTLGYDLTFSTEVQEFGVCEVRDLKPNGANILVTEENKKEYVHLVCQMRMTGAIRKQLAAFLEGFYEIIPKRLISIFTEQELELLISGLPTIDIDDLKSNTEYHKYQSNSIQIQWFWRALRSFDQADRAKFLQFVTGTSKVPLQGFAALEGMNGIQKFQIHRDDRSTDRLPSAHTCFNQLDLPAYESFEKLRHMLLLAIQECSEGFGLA
# UniProt Q86SX6: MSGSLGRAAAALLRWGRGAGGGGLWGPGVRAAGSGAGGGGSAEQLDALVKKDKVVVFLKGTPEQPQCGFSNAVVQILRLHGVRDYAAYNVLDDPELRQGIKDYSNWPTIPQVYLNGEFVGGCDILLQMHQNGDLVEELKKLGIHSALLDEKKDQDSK
# UniProt Q7Z628: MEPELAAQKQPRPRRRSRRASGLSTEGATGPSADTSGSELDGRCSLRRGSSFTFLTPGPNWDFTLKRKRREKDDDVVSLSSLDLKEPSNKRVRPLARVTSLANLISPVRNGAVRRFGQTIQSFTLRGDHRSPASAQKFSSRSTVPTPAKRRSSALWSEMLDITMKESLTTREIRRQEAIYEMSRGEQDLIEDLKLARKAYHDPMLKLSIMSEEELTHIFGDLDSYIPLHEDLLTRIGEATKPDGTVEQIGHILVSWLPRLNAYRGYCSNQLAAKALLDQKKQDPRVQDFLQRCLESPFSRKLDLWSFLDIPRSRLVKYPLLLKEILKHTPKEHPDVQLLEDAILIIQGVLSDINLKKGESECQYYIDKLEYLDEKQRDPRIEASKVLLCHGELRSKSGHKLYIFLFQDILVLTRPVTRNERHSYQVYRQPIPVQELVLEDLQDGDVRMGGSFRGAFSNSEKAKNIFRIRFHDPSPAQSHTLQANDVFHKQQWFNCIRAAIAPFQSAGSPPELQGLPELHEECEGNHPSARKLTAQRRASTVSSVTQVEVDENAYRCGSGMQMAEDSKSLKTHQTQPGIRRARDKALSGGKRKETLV
# UniProt Q86WQ0: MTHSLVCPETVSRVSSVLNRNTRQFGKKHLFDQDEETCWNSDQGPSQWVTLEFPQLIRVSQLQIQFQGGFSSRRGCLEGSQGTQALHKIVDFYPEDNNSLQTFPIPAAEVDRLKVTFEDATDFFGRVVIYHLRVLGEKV
# Shown are results outside the selection of targets with a hit, which stands elsewhere. The data scatter; read single values as rough. Only a part is listed here, and it is no random draw.
# Compound: COC(=O)/C=C/c1ccccc1 [methyl cinnamate]
# Test: log2 ratio of iodoacetamide-alkyne labeling of the cysteine site, DMSO over compound (competition); higher = stronger covalent engagement of the cysteine by the compound, active = 1 or more
# Conditions: 500 µM; treatment time 1 h; system: HEK293T cell lysate
# Summary of the method: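 The log2 competition ratio per cysteine is defined as mean reporter intensity in control channels over mean reporter intensity in compound channels. Lysate from HEK293T cells (2 mg/mL) received electrophile (500 µM) or vehicle for 1 h at ambient temperature, followed by iodoacetamide alkyne for 1 h. Samples were clicked to sCIP-TMT reagents, pooled, trypsin-digested overnight at 37 °C, streptavidin-enriched, acid-eluted and run on Orbitrap Eclipse LC-MS/MS with FAIMS, with quantification in FragPipe. Three replicates with duplicate channels were used, and any cysteine quantified in only one replicate was excluded.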
row,Target,log2 ratio of iodoacetamide-alkyne labeling
1,MAP7D3 C315 (UniProt Q8IWC1),inactive: 0.217
2,HEATR3 C534 (UniProt Q7Z4Q2),inactive: 0.15
3,DCP2 C158 (UniProt Q8IU60),inactive: 0.024
4,VRK3 C191 (UniProt Q8IV63),inactive: 0.119
5,SUPV3L1 C175 (UniProt Q8IYB8),inactive: 0.305
6,MRPL10 C180 (UniProt Q7Z7H8),inactive: -0.0852
7,CAND1 C179 (UniProt Q86VP6),inactive: 0.0508
8,HUWE1 C790 (UniProt Q7Z6Z7),inactive: 0.484
9,UniProt Q7Z5K2_C675,inactive: 0.157
10,UniProt Q7L1Q6_C35,inactive: -0.148
11,KTN1 C303 (UniProt Q86UP2),inactive: 0.0565
12,UniProt Q7L8W6_C88,active: 1.11
13,CYFIP1 C98 (UniProt Q7L576),inactive: 0.285
14,HUWE1 C3239 (UniProt Q7Z6Z7),inactive: 0.0211
15,APTX C161 (UniProt Q7Z2E3),inactive: 0.182
16,UniProt Q86Y56_C84,inactive: 0.144
17,DHX30 C346 (UniProt Q7L2E3),inactive: 0.215
18,UniProt Q86YR5_C515,inactive: 0.522
19,DHX30 C1183 (UniProt Q7L2E3),inactive: -0.0704

row,Target,log2 ratio of iodoacetamide-alkyne labeling
1,PARG C963 (UniProt Q86W56),inactive: 0.0149
2,VPS13B C2907 (UniProt Q7Z7G8),inactive: 0.559
3,CAND1 C275 (UniProt Q86VP6),inactive: 0.21
4,GLRX5 C67 (UniProt Q86SX6),inactive: 0.298
5,NET1 C522 (UniProt Q7Z628),inactive: 0.0462
6,NR2C2AP C7 (UniProt Q86WQ0),inactive: 0.159
7,KTN1 C736 (UniProt Q86UP2),inactive: 0.209
8,LUZP1 C594 (UniProt Q86V48),inactive: 0.592
9,ZC3HAV1 C219 (UniProt Q7Z2W4),inactive: 0.081
10,UniProt Q7L0Y3_C78,inactive: 0.214
11,RSRC2 C382 (UniProt Q7L4I2),inactive: 0.331
12,ZC3HAV1 C150 (UniProt Q7Z2W4),inactive: 0.198
13,SLFN11 C126 (UniProt Q7Z7L1),inactive: 0.0381
14,CCDC50 C85 (UniProt Q8IVM0),inactive: 0.27
15,HUWE1 C1278 (UniProt Q7Z6Z7),inactive: -0.0378
16,HEATR3 C655 (UniProt Q7Z4Q2),inactive: 0.0882
17,UniProt Q7Z5K2_C964,inactive: 0.0166
18,PARG C515 (UniProt Q86W56),inactive: 0.342

# A few values from the list:
# Value of CAND1 C275 (UniProt Q86VP6) under log2 ratio of iodoacetamide-alkyne labeling: inactive: 0.21
# Value of NR2C2AP C7 (UniProt Q86WQ0) under log2 ratio of iodoacetamide-alkyne labeling: inactive: 0.159
